The values that follow come from the supplement of paper PMC6411743.

Sequences of proteins named here, by UniProt entry; tags and fusion partners are left off. A change or cut given only in a name is not applied to a line headed by its entry.
UniProt P53621: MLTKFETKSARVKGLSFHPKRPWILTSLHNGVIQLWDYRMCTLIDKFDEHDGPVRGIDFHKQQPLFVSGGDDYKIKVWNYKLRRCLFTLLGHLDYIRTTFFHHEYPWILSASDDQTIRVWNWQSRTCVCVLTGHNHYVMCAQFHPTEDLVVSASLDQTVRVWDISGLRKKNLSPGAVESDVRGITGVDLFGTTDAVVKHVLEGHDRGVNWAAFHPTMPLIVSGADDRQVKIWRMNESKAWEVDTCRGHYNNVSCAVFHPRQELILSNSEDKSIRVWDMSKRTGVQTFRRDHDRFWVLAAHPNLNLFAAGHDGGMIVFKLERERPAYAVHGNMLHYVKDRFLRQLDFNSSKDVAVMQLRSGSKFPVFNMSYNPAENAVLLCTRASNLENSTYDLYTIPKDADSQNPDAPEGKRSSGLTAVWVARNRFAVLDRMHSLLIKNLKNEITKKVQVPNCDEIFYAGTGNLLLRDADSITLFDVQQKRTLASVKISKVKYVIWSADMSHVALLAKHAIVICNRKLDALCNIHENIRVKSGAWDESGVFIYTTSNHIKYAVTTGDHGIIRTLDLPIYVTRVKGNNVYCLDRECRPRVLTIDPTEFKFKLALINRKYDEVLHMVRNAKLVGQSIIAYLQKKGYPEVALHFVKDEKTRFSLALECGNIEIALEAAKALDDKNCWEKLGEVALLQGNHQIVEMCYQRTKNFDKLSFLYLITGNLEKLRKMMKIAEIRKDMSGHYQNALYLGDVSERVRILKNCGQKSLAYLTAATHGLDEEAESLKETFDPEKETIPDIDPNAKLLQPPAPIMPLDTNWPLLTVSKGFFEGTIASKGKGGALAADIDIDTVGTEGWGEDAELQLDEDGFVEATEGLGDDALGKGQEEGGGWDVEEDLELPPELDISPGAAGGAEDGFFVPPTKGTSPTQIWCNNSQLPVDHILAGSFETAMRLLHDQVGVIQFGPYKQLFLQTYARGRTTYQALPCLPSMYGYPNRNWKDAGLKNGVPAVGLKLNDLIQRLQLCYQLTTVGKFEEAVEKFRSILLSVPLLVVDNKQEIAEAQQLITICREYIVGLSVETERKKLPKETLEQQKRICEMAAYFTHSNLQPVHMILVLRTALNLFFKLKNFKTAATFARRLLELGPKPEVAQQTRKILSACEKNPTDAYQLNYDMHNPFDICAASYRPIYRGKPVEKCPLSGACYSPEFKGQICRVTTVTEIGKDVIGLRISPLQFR
UniProt P55263: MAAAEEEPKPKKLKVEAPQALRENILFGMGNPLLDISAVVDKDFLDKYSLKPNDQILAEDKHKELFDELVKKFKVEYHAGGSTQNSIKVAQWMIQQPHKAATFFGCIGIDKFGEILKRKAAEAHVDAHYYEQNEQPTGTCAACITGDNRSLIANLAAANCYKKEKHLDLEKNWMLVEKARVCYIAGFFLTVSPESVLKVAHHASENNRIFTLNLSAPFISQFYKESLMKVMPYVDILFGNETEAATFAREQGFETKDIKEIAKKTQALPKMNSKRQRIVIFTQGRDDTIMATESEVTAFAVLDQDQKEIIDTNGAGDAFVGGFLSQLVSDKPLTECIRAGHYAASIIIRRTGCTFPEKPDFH
UniProt P62312: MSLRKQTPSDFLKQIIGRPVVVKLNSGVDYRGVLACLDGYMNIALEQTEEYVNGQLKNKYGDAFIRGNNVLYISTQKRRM
UniProt P61956, whole entry: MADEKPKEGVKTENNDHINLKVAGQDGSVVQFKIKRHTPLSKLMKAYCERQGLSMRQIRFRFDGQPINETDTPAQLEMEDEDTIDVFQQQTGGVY
UniProt P54619: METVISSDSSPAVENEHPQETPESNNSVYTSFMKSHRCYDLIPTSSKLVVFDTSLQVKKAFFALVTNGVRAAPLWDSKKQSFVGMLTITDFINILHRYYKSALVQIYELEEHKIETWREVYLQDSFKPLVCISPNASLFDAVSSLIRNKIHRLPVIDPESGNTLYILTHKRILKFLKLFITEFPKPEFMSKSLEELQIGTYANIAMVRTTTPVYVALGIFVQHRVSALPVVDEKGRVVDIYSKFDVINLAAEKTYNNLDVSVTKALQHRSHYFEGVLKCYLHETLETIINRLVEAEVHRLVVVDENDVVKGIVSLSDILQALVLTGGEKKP
UniProt P83916, whole entry, looked up: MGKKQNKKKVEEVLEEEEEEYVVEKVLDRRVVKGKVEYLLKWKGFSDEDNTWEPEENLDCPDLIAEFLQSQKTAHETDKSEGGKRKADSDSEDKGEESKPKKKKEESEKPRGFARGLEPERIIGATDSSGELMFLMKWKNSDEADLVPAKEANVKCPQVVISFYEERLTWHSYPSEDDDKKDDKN
UniProt P55201: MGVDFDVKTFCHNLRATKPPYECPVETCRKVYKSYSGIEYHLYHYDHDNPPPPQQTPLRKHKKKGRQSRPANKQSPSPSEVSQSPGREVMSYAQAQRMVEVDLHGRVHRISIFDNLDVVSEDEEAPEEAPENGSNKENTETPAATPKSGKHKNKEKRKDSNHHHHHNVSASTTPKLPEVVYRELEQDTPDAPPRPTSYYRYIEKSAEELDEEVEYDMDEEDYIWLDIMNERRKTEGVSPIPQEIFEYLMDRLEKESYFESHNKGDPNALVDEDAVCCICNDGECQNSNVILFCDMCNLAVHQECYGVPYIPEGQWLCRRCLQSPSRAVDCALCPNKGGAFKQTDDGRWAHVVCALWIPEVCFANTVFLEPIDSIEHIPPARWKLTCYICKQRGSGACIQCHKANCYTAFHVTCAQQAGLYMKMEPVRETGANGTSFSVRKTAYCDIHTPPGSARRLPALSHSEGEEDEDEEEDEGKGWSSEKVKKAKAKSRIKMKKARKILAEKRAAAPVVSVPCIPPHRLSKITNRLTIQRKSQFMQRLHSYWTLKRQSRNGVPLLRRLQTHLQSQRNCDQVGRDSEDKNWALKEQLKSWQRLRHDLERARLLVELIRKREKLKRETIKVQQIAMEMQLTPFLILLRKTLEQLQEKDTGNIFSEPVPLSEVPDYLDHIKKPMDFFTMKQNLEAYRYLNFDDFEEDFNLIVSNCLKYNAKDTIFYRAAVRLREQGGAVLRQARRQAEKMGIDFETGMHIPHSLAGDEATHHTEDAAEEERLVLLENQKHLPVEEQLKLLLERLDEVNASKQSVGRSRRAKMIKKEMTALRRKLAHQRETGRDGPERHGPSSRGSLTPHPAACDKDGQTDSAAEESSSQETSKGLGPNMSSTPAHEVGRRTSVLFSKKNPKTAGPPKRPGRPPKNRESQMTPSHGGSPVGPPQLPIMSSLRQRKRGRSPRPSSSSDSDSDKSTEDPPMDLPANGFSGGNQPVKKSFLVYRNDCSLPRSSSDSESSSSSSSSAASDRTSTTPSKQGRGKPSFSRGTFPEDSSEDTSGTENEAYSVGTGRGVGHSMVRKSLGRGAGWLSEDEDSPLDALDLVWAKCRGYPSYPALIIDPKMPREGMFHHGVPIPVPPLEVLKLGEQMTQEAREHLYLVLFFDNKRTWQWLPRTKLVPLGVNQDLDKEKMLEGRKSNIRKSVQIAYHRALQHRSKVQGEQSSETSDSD
UniProt P58557: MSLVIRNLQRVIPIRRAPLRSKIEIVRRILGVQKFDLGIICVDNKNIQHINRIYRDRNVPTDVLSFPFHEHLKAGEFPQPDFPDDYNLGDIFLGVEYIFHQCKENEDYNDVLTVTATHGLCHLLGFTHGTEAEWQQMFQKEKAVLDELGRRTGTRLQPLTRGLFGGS
UniProt P61966: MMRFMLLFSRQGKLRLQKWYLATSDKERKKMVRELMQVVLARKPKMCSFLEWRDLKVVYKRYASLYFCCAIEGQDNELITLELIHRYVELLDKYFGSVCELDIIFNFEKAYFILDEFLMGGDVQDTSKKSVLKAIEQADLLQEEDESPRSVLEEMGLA
UniProt P61289: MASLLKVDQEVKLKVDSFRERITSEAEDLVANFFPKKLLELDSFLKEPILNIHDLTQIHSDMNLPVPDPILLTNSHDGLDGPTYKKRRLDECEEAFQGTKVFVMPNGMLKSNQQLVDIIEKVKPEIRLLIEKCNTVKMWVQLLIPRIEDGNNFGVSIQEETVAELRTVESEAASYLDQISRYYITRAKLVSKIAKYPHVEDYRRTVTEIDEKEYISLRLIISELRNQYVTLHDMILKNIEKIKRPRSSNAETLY
UniProt P78332: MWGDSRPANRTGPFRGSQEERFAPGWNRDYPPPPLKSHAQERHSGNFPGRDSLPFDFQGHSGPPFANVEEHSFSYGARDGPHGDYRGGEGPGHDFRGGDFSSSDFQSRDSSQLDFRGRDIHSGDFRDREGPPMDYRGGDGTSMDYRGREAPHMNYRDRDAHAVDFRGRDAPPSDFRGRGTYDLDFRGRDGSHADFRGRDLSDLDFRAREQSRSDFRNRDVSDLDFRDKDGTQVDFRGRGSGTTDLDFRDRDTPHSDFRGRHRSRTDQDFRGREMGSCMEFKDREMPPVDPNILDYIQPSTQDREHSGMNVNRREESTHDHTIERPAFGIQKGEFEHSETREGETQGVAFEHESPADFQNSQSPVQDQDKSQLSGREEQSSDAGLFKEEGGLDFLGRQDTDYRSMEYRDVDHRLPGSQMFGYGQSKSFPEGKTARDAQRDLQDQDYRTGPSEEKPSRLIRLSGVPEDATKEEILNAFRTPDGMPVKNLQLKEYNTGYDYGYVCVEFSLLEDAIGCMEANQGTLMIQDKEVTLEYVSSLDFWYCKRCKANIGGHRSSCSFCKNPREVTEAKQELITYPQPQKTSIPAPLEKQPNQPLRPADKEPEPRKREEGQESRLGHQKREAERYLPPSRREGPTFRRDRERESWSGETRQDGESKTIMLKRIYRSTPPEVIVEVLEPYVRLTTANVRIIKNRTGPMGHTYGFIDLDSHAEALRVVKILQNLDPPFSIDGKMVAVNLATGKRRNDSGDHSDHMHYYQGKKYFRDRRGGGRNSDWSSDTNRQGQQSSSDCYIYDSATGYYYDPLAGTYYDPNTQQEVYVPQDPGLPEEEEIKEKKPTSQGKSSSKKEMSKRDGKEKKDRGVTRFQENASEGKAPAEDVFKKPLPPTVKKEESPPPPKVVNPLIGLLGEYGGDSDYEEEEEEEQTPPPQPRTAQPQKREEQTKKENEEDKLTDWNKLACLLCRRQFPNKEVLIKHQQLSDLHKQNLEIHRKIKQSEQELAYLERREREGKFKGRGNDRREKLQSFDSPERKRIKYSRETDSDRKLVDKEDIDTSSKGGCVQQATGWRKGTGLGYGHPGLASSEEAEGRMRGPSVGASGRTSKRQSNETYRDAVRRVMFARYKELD
UniProt P50991: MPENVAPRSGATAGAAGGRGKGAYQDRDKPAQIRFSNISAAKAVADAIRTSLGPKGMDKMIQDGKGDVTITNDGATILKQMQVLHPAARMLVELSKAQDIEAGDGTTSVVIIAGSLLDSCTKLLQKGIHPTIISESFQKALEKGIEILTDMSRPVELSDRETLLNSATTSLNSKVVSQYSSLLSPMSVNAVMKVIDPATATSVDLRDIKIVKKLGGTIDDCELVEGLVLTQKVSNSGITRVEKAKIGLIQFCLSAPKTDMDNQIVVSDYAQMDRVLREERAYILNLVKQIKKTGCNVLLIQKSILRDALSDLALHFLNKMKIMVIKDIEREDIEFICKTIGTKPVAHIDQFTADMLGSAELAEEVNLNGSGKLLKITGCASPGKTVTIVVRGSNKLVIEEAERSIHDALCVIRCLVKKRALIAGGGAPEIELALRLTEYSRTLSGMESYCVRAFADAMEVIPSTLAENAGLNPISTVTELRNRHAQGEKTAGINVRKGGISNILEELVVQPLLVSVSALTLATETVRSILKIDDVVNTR
UniProt P54577: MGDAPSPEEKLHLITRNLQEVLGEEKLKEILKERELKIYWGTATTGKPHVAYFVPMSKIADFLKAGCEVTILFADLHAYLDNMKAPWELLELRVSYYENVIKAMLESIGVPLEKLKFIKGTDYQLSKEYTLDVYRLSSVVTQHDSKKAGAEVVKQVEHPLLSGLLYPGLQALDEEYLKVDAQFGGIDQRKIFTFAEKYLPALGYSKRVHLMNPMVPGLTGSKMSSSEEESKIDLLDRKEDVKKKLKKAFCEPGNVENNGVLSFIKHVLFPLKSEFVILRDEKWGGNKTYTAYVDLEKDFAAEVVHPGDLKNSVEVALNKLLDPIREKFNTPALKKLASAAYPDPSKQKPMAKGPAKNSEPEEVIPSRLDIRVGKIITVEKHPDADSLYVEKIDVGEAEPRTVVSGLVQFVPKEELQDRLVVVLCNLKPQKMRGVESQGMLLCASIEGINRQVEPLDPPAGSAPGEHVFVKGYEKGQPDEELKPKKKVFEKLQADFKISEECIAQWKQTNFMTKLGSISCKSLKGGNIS
UniProt P56559: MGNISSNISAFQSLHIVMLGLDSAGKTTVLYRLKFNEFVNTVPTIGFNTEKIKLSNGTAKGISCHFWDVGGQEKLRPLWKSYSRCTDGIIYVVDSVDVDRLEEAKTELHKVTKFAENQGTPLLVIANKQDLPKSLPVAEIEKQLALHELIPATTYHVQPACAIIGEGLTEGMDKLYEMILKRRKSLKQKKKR

± gives the standard deviation of the averaged measurements. This is one part of the list.

Compound in this experiment: Nc1nc2c(ncn2[C@@H]2O[C@H](COP(=O)(O)OP(=O)(O)OP(=O)(O)O)[C@@H](O)[C@H]2O)c(=O)[nH]1 [guanosine triphosphate]
The experiment is described as follows: NP40-soluble protein abundance relative to vehicle (solubility fold change) (ratio); higher = more soluble protein in presence of GTP. In short, it runs like this:
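In three independent experiments, Jurkat crude lysate made by Dounce homogenisation was treated for 10 min at room temperature and then 3 min at 37 °C with eight concentrations ranging from 0.1 to 10 mM. It was then solubilised with 0.8% NP40 plus benzonase for 60 min at 4 °C and ultracentrifuged. The supernatant was TMT-labelled for LC-MS/MS, and each value is the fold change against the detergent-processed vehicle for the same replicate, using vsn-normalised intensities.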

Take KPNA2 (UniProt P52292): the NP40-soluble protein abundance (concentration: 0.1mM) is 0.994 ± 0.025; the NP40-soluble protein abundance (concentration: 0.5mM) is 0.961 ± 0.027; the NP40-soluble protein abundance (concentration: 1mM) was determined as 1.02 ± 0.013; the NP40-soluble protein abundance (concentration: 2mM) came out at 1 ± 0.024; the NP40-soluble protein abundance (concentration: 4mM) was determined as 1.041 ± 0.0083; the NP40-soluble protein abundance (concentration: 6mM) amounted to 1.032 ± 0.0091. Also, the NP40-soluble protein abundance (concentration: 8mM) was found to be 1.051 ± 0.0056 and the NP40-soluble protein abundance (concentration: 10mM) turned out to be 1.03 ± 0.038.

As for UniProt P53621 and related entries, the NP40-soluble protein abundance worked out at 1.04 ± 0.039 (concentration: 0.1mM); 1.09 ± 0.094 (concentration: 0.5mM); 0.974 ± 0.069 (concentration: 1mM); 1.04 ± 0.15 (concentration: 2mM); 1.05 ± 0.13 (concentration: 4mM); 1.03 ± 0.15 (concentration: 6mM). Besides, the NP40-soluble protein abundance (concentration: 8mM) turned out to be 0.978 ± 0.055 and the NP40-soluble protein abundance (concentration: 10mM) was 0.971 ± 0.084.

Regarding UniProt P55263 and related entries, the NP40-soluble protein abundance (concentration: 0.1mM) stood at 0.987 ± 0.015; the NP40-soluble protein abundance (concentration: 0.5mM) worked out at 0.948 ± 0.02; the NP40-soluble protein abundance (concentration: 1mM) was found to be 0.927 ± 0.041; the NP40-soluble protein abundance (concentration: 2mM) was 0.882 ± 0.043; the NP40-soluble protein abundance (concentration: 4mM) came to 0.861 ± 0.052; the NP40-soluble protein abundance (concentration: 6mM) is 0.882 ± 0.047. Also, the NP40-soluble protein abundance is, setting by setting: (concentration: 8mM) 0.866 ± 0.068; (concentration: 10mM) 0.797 ± 0.08.

UniProt P62312: the NP40-soluble protein abundance (concentration: 0.1mM) turned out to be 0.902 ± 0.05; the NP40-soluble protein abundance (concentration: 0.5mM) was 0.886 ± 0.052; the NP40-soluble protein abundance (concentration: 1mM) was 0.987 ± 0.069; the NP40-soluble protein abundance (concentration: 2mM) was found to be 0.939 ± 0.017; the NP40-soluble protein abundance (concentration: 4mM) came to 0.915 ± 0.057; the NP40-soluble protein abundance (concentration: 6mM) was 0.956 ± 0.03. Besides, the NP40-soluble protein abundance (concentration: 8mM) worked out at 0.911 ± 0.064 and the NP40-soluble protein abundance (concentration: 10mM) is 0.952 ± 0.045.

With UniProt P61956 and related entries, the NP40-soluble protein abundance by setting is: (concentration: 0.1mM) 0.914 ± 0.077; (concentration: 0.5mM) 0.853 ± 0.055; (concentration: 1mM) 1.11 ± 0.12; (concentration: 2mM) 0.994 ± 0.078; (concentration: 4mM) 1.03 ± 0.036; (concentration: 6mM) 1.02 ± 0.084. Moreover, the NP40-soluble protein abundance was 1.04 ± 0.13 (concentration: 8mM) and 1.01 ± 0.049 (concentration: 10mM).

UniProt P54619 and related entries: the NP40-soluble protein abundance is 1.07 ± 0.051 (concentration: 0.1mM); 1.06 ± 0.082 (concentration: 0.5mM); 0.994 ± 0.035 (concentration: 1mM); 0.982 ± 0.12 (concentration: 2mM); 0.957 ± 0.086 (concentration: 4mM); 0.949 ± 0.076 (concentration: 6mM). Also, the NP40-soluble protein abundance amounted to 0.907 ± 0.019 (concentration: 8mM) and 0.916 ± 0.086 (concentration: 10mM).

Turning to UniProt P83916 and related entries, the NP40-soluble protein abundance is, setting by setting: (concentration: 0.1mM) 0.896 ± 0.021; (concentration: 0.5mM) 0.925 ± 0.015; (concentration: 1mM) 1 ± 0.035; (concentration: 2mM) 1.01 ± 0.022; (concentration: 4mM) 0.962 ± 0.04; (concentration: 6mM) 1.01 ± 0.031. Moreover, the NP40-soluble protein abundance reads like this: (concentration: 8mM) 1.032 ± 0.0036; (concentration: 10mM) 1.09 ± 0.06.

As to P62158 (UniProt P0DP23), the NP40-soluble protein abundance reads like this: (concentration: 0.1mM) 0.715 ± 0.11; (concentration: 0.5mM) 0.763 ± 0.14; (concentration: 1mM) 0.991 ± 0.17; (concentration: 2mM) 1.12 ± 0.19; (concentration: 4mM) 1.09 ± 0.21; (concentration: 6mM) 1.15 ± 0.24. Moreover, the NP40-soluble protein abundance is, setting by setting: (concentration: 8mM) 0.939 ± 0.14; (concentration: 10mM) 1.14 ± 0.11.

UniProt P55201 and related entries: the NP40-soluble protein abundance runs as follows: (concentration: 0.1mM) 1.08 ± 0.055; (concentration: 0.5mM) 1.13 ± 0.069; (concentration: 1mM) 1.07 ± 0.16; (concentration: 2mM) 1.04 ± 0.2; (concentration: 4mM) 1.09 ± 0.17; (concentration: 6mM) 1.17 ± 0.13. The NP40-soluble protein abundance (concentration: 8mM) was determined as 1.16 ± 0.14 and the NP40-soluble protein abundance (concentration: 10mM) was determined as 1.21 ± 0.23.

As for YBEY (UniProt P58557), the NP40-soluble protein abundance amounted to 1.02 ± 0.12 (concentration: 0.1mM); 1.03 ± 0.14 (concentration: 0.5mM); 1.03 ± 0.086 (concentration: 1mM); 1.05 ± 0.054 (concentration: 2mM); 1.04 ± 0.07 (concentration: 4mM); 1.06 ± 0.089 (concentration: 6mM). The NP40-soluble protein abundance runs as follows: (concentration: 8mM) 1.12 ± 0.14; (concentration: 10mM) 1.05 ± 0.047.

For UniProt P52948 and related entries, the NP40-soluble protein abundance (concentration: 0.1mM) amounted to 1.01 ± 0.035; the NP40-soluble protein abundance (concentration: 0.5mM) came out at 1.03 ± 0.035; the NP40-soluble protein abundance (concentration: 1mM) worked out at 1.07 ± 0.033; the NP40-soluble protein abundance (concentration: 2mM) came to 1.1 ± 0.039; the NP40-soluble protein abundance (concentration: 4mM) stood at 1.2 ± 0.02; the NP40-soluble protein abundance (concentration: 6mM) was 1.26 ± 0.033. Also, the NP40-soluble protein abundance reads like this: (concentration: 8mM) 1.35 ± 0.03; (concentration: 10mM) 1.438 ± 0.011.

Regarding UniProt P61966, the NP40-soluble protein abundance was 1.06 ± 0.025 (concentration: 0.1mM); 1.103 ± 0.011 (concentration: 0.5mM); 1.08 ± 0.11 (concentration: 1mM); 1.09 ± 0.032 (concentration: 2mM); 1.09 ± 0.086 (concentration: 4mM); 1.06 ± 0.094 (concentration: 6mM). Further, the NP40-soluble protein abundance was 1.09 ± 0.04 (concentration: 8mM) and 1.07 ± 0.028 (concentration: 10mM).

In the case of UniProt P61289 and related entries, the NP40-soluble protein abundance runs as follows: (concentration: 0.1mM) 0.9 ± 0.067; (concentration: 0.5mM) 0.772 ± 0.16; (concentration: 1mM) 1.16 ± 0.29; (concentration: 2mM) 0.755 ± 0.37; (concentration: 4mM) 1.14 ± 0.32; (concentration: 6mM) 0.735 ± 0.34. In addition, the NP40-soluble protein abundance is, setting by setting: (concentration: 8mM) 0.846 ± 0.08; (concentration: 10mM) 0.7 ± 0.34.

Consider RBM6 (UniProt P78332), for which the NP40-soluble protein abundance by setting is: (concentration: 0.1mM) 1.02 ± 0.025; (concentration: 0.5mM) 1.01 ± 0.034; (concentration: 1mM) 1.05 ± 0.055; (concentration: 2mM) 1.06 ± 0.058; (concentration: 4mM) 1.13 ± 0.032; (concentration: 6mM) 1.14 ± 0.049. Also, the NP40-soluble protein abundance is, setting by setting: (concentration: 8mM) 1.21 ± 0.077; (concentration: 10mM) 1.23 ± 0.07.

As to CCT4 (UniProt P50991), the NP40-soluble protein abundance runs as follows: (concentration: 0.1mM) 1.03 ± 0.037; (concentration: 0.5mM) 1.1 ± 0.11; (concentration: 1mM) 1.12 ± 0.12; (concentration: 2mM) 1.13 ± 0.16; (concentration: 4mM) 1.11 ± 0.18; (concentration: 6mM) 1.1 ± 0.19. The NP40-soluble protein abundance runs as follows: (concentration: 8mM) 1.09 ± 0.21; (concentration: 10mM) 1.05 ± 0.21.

For the target YARS (UniProt P54577), the NP40-soluble protein abundance runs as follows: (concentration: 0.1mM) 0.952 ± 0.037; (concentration: 0.5mM) 0.969 ± 0.029; (concentration: 1mM) 0.92 ± 0.042; (concentration: 2mM) 0.878 ± 0.048; (concentration: 4mM) 0.864 ± 0.061; (concentration: 6mM) 0.874 ± 0.048. Also, the NP40-soluble protein abundance is, setting by setting: (concentration: 8mM) 0.872 ± 0.043; (concentration: 10mM) 0.849 ± 0.066.

UniProt P56559 and related entries: the NP40-soluble protein abundance reads like this: (concentration: 0.1mM) 1.41 ± 0.089; (concentration: 0.5mM) 1.56 ± 0.19; (concentration: 1mM) 1.56 ± 0.21; (concentration: 2mM) 1.45 ± 0.19; (concentration: 4mM) 1.43 ± 0.22; (concentration: 6mM) 1.51 ± 0.17. For the same target, the NP40-soluble protein abundance is, setting by setting: (concentration: 8mM) 1.51 ± 0.27; (concentration: 10mM) 1.45 ± 0.3.

With UniProt P62857, the NP40-soluble protein abundance came out at 0.827 ± 0.046 (concentration: 0.1mM); 0.7927 ± 0.0065 (concentration: 0.5mM); 0.972 ± 0.1 (concentration: 1mM); 0.93 ± 0.1 (concentration: 2mM); 0.806 ± 0.15 (concentration: 4mM); 0.746 ± 0.14 (concentration: 6mM). The NP40-soluble protein abundance by setting is: (concentration: 8mM) 0.61 ± 0.093; (concentration: 10mM) 0.735 ± 0.17.
